Data on 2 molecules can be found in article PMC8810010.

Results are given in words; binding and its absence hold for the method and conditions named. In cells and extracts the contact can be indirect. Some binding calls cover weakened binding; strength is not graded here.

The target of assay [1] is T1, ER resident protein 44 (ERp44) (human (endogenous in HTR-8/SVneo and JEG-3)) (UniProt Q9BS26).
T1 sequence: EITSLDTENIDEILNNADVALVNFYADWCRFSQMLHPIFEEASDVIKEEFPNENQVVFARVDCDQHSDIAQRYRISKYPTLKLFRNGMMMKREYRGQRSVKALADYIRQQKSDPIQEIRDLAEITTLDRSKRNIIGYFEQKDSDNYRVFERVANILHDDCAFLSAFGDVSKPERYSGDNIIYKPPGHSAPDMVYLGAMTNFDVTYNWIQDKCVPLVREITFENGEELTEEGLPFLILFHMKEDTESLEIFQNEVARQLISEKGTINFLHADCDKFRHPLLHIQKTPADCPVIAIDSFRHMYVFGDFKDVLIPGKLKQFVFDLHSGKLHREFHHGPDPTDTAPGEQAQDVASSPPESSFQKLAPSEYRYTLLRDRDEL
In words: co-IP; lysates of HTR-8/SVneo and JEG-3 cells (IP lysis buffer); specific antibody or IgG added to the supernatant overnight at 4°C, protein A/G beads 2 h, washed 3 times with lysis buffer, western blot. For orientation: Immunoblotting shows a protein as a band on a membrane.

Assay [2] addresses T2, Protein tyrosine phosphatase receptor type O (PTPRO) (human (endogenous in HTR-8/SVneo and JEG-3)) (UniProt Q16827).
T2 sequence: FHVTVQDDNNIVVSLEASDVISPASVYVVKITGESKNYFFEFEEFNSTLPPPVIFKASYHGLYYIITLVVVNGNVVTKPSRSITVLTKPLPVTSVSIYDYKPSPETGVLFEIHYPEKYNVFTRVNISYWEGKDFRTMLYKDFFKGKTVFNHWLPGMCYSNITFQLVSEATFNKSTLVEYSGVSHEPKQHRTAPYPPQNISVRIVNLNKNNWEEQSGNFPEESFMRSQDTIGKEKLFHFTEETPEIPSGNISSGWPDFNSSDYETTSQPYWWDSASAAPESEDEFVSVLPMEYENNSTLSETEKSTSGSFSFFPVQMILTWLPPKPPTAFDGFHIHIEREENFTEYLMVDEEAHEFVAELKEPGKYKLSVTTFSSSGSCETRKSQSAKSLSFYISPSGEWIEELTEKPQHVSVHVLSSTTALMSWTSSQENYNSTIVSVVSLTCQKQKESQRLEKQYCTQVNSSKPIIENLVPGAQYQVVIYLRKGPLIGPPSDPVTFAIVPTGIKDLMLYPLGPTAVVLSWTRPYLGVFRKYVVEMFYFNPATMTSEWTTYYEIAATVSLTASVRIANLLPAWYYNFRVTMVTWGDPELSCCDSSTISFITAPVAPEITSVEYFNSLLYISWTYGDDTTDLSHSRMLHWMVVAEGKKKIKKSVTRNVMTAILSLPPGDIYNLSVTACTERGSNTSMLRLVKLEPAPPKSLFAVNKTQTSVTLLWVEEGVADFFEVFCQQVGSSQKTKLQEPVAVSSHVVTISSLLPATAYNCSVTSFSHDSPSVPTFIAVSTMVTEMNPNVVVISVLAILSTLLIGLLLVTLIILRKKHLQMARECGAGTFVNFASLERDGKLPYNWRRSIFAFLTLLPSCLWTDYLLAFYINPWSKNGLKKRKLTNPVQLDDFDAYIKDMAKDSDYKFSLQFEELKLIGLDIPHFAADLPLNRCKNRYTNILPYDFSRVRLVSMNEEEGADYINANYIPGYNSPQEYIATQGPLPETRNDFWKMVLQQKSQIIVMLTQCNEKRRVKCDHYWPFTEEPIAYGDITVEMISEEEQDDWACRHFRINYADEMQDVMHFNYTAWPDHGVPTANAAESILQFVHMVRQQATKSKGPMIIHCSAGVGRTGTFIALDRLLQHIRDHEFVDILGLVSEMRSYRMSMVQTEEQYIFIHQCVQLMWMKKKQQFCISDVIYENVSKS
Described as above.

B1: Protein tyrosine phosphatase receptor type O (PTPRO) (receptor, UniProt Q16827 30-1216)
chain: T2 sequence
On to B1, for which the binding entry in assay [1] is “binds”.

B2: ER resident protein 44 (ERp44) (protein, UniProt Q9BS26 30-406)
chain: T1 sequence
Take B2: the binding result in assay [2] was “binds”.
